In the supplement of paper PMC4604168 (melanoma cell lines):
This is one part of the list. Single values are uncertain, as repeats are few or missing.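 The apoptosis fraction was the count of cleaved-PARP antibody-stained nuclei relative to all DNA-stained nuclei, imaged in 1,536-well plates. Screening doses were set so most cells survived, and baseline and induced cleaved-PARP levels vary greatly across cell lines.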

Tests used:
Assay in all cases: cleaved PARP positive nuclei fraction relative to DMSO control; melanoma cells; higher = more apoptosis
Conditions in all cases: library dose: low library concentration; 72 h
[1] = tested on: 501Mel
[2] = tested on: A101D
[3] = tested on: A2058
[4] = tested on: C32
[5] = tested on: CBRC008 (line from a melanoma biopsy)
[6] = tested on: CBRC014 (line from a melanoma biopsy)
[7] = tested on: CBRC016 (line from a melanoma biopsy)
[8] = tested on: CBRC017 (line from a melanoma biopsy)

| Compound | cleaved PARP positive nuclei fraction [1] | cleaved PARP positive nuclei fraction [2] | cleaved PARP positive nuclei fraction [3] | cleaved PARP positive nuclei fraction [4] | cleaved PARP positive nuclei fraction [5] | cleaved PARP positive nuclei fraction [6] | cleaved PARP positive nuclei fraction [7] | cleaved PARP positive nuclei fraction [8] |
| --- | --- | --- | --- | --- | --- | --- | --- | --- |
| CC[C@]1(O)C[C@H]2CN(CCc3c([nH]c4ccccc34)[C@@](C(=O)OC)(c3cc4c(cc3OC)N(C=O)[C@H]3[C@@](O)(C(=O)OC)[C@H](OC(C)=O)[C@]5(CC)C=CCN6CC[C@]43[C@@H]65)C2)C1 [vincristine] + C/C(O)=C(\C#N)C(=O)Nc1cc(Br)ccc1Br [LFM-A13] (first compound 0.0001 µM, partner dose 2 µM) | 76.8% | 54.8% | 577% | 203% | 416% | 104% | 114% | 114% |
| CCCS(=O)(=O)Nc1ccc(F)c(C(=O)c2c[nH]c3ncc(Cl)cc23)c1F + C/C(O)=C(\C#N)C(=O)Nc1cc(Br)ccc1Br [LFM-A13] (first compound 0.08 µM, partner dose 2 µM) | 67.5% | 34.5% | 47.6% | 45.3% | 33% | 241% | 56.1% | 79.5% |
| Cn1cc(C2=C(c3cn(C4CCN(Cc5ccccn5)CC4)c4ccccc34)C(=O)NC2=O)c2ccccc21 [Enzastaurin] + COC(=O)c1sccc1S(=O)(=O)Nc1ccc(Nc2ccccc2)cc1OC [GSK0660] (first compound 0.8 µM, partner dose 1 µM) | 125% | 11.3% | 56.4% | 246% | 229% | 119% | 79.7% | 85.8% |
| CC(=O)O[C@@]12CO[C@@H]1C[C@H](O)[C@@]1(C)C(=O)[C@H](O)C3=C(C)[C@@H](OC(=O)[C@H](O)[C@@H](NC(=O)OC(C)(C)C)c4ccccc4)C[C@@](O)([C@@H](OC(=O)c4ccccc4)[C@H]21)C3(C)C [Docetaxel] + Cc1cc(SCc2sc(-c3ccc(C(F)(F)F)c(F)c3)nc2C)ccc1OCC(=O)O [GW0742] (first compound 0.0001 µM, partner dose 2 µM) | 62.8% | 67.8% | 4310% | 89.6% | 854% | 163% | 128% | 82.1% |
| CS(=O)(=O)c1ccc(C(=O)Nc2ccc(Cl)c(-c3ccccn3)c2)c(Cl)c1 [vismodegib] + O=C(Oc1ccc([N+](=O)[O-])cc1)N1CCC(C(O)(c2ccc3c(c2)OCO3)c2ccc3c(c2)OCO3)CC1 [JZL184] (first compound 1 µM, partner dose 1 µM) | 64% | 32.5% | 38.6% | 160% | 160% | 101% | 111% | 278% |
| CN(c1ncccc1CNc1nc(Nc2ccc3c(c2)CC(=O)N3)ncc1C(F)(F)F)S(C)(=O)=O + C/C(O)=C(\C#N)C(=O)Nc1cc(Br)ccc1Br [LFM-A13] (first compound 0.08 µM, partner dose 2 µM) | 58.4% | 26.1% | 116% | 89.8% | 60.8% | 85.1% | 42.2% | 72.2% |
| Cc1ccc(Nc2nccc(N(C)c3ccc4c(C)n(C)nc4c3)n2)cc1S(N)(=O)=O [Pazopanib] + Cc1cc(SCc2sc(-c3ccc(C(F)(F)F)c(F)c3)nc2C)ccc1OCC(=O)O [GW0742] (first compound 0.4 µM, partner dose 2 µM) | 66.6% | 69.2% | 144% | 84.9% | 115% | 125% | 22.9% | 119% |
| COc1cc([C@@H]2c3cc4c(cc3[C@@H](O[C@@H]3O[C@@H]5CO[C@@H](C)O[C@H]5[C@H](O)[C@H]3O)[C@H]3COC(=O)[C@H]23)OCO4)cc(OC)c1O [etoposide] + C/C(O)=C(\C#N)C(=O)Nc1cc(Br)ccc1Br [LFM-A13] (first compound 0.02 µM, partner dose 2 µM) | 55.3% | 22% | 137% | 204% | 95.5% | 108% | 97.2% | 98.1% |
| Cn1cc(C2=C(c3cn(C4CCN(Cc5ccccn5)CC4)c4ccccc34)C(=O)NC2=O)c2ccccc21 [Enzastaurin] + CCN(CC)CCCCNc1ncc2cc(-c3cc(OC)cc(OC)c3)c(NC(=O)NC(C)(C)C)nc2n1 [PD173074] (first compound 0.8 µM, partner dose 0.1 µM) | 173% | 31.6% | 41.4% | 252% | 288% | 122% | 135% | 158% |
| N.N.[Cl][Pt][Cl] [cisplatin] + C/C(O)=C(\C#N)C(=O)Nc1cc(Br)ccc1Br [LFM-A13] (first compound 1.6 µM, partner dose 2 µM) | 141% | 22.3% | 112% | 186% | 174% | 107% | 349% | 175% |
| C[C@]12O[C@H](C[C@]1(O)CO)n1c3ccccc3c3c4c(c5c6ccccc6n2c5c31)CNC4=O [Lestaurtinib] + COc1ccc(-c2ccc3c(N4CCOCC4)nc(N4C[C@@H](C)O[C@@H](C)C4)nc3n2)cc1CO [KU0063794] (first compound 0.004 µM, partner dose 0.02 µM) | 68.4% | 14.8% | 168% | 292% | 111% | 82.5% | 54.5% | 78% |
| Cc1cc(Nc2cc(N3CCN(C)CC3)nc(/C=C/c3ccccc3)n2)n[nH]1 + O=C(Oc1ccc([N+](=O)[O-])cc1)N1CCC(C(O)(c2ccc3c(c2)OCO3)c2ccc3c(c2)OCO3)CC1 [JZL184] (first compound 0.04 µM, partner dose 1 µM) | 67.3% | 13.8% | 111% | 282% | 143% | 662% | 60.1% | 78.2% |
| Cn1cnc2c(F)c(Nc3ccc(Br)cc3Cl)c(C(=O)NOCCO)cc21 [selumetinib] + O=C(Oc1ccc([N+](=O)[O-])cc1)N1CCC(C(O)(c2ccc3c(c2)OCO3)c2ccc3c(c2)OCO3)CC1 [JZL184] (first compound 0.015 µM, partner dose 1 µM) | 124% | 47.7% | 85.1% | 229% | 138% | 87.8% | 28% | 262% |
| Cc1cn(-c2cc(NC(=O)c3ccc(C)c(Nc4nccc(-c5cccnc5)n4)c3)cc(C(F)(F)F)c2)cn1 [nilotinib] + Cc1cc(SCc2sc(-c3ccc(C(F)(F)F)c(F)c3)nc2C)ccc1OCC(=O)O [GW0742] (first compound 0.2 µM, partner dose 2 µM) | 74.7% | 31.9% | 138% | 45.9% | 203% | 97.9% | 58.6% | 77.5% |
| C[C@]1(O)C[C@@H](c2nc(-c3ccc4ccc(-c5ccccc5)nc4c3)c3c(N)nccn32)C1 + Cc1cc(SCc2sc(-c3ccc(C(F)(F)F)c(F)c3)nc2C)ccc1OCC(=O)O [GW0742] (first compound 0.4 µM, partner dose 2 µM) | 81.2% | 27.6% | 90.1% | 194% | 163% | 119% | 99.2% | 105% |
| N.N.[Cl][Pt][Cl] [cisplatin] + Oc1nc(-c2ccc(C(F)(F)F)cc2)nc2c1CSCC2 [XAV939] (first compound 1.6 µM, partner dose 2 µM) | 64.8% | 37.2% | 49% | 42.3% | 167% | 127% | 104% | 114% |
| CC(=O)c1c(C)c2cnc(Nc3ccc(N4CCNCC4)cn3)nc2n(C2CCCC2)c1=O [palbociclib] + C/C(O)=C(\C#N)C(=O)Nc1cc(Br)ccc1Br [LFM-A13] (first compound 0.04 µM, partner dose 2 µM) | 195% | 61.3% | 273% | 113% | 81.8% | 116% | 68.3% | 118% |
| NC(=O)c1ccc(N(C(N)=O)c2c(F)cccc2F)nc1-c1ccc(F)cc1F + Cc1cc(SCc2sc(-c3ccc(C(F)(F)F)c(F)c3)nc2C)ccc1OCC(=O)O [GW0742] (first compound 0.4 µM, partner dose 2 µM) | 83.5% | 56.1% | 241% | 110% | 123% | 97.4% | 97.8% | 79.3% |
| Cn1cc(C2=C(c3cn(C4CCN(Cc5ccccn5)CC4)c4ccccc34)C(=O)NC2=O)c2ccccc21 [Enzastaurin] + COc1ccc(COc2ccc(Cc3cnc(N)nc3N)cc2OC)cc1 [GW2580] (first compound 0.8 µM, partner dose 1 µM) | 68.4% | 15.4% | 46.7% | 99.5% | 109% | 102% | 70.6% | 115% |
| Cn1cc(C2=C(c3cn(C4CCN(Cc5ccccn5)CC4)c4ccccc34)C(=O)NC2=O)c2ccccc21 [Enzastaurin] + CC(C)CCN1c2nc(Nc3cc(F)c(O)c(F)c3)ncc2N(C)C(=O)C1C [BID1870] (first compound 0.8 µM, partner dose 0.2 µM) | 123% | 53.4% | 105% | 142% | 82.6% | 117% | 73.7% | 96% |
| O=C(Nc1cc(C(F)(F)F)cc(C(F)(F)F)c1)c1cc(Cl)ccc1O + O=C(Oc1ccc([N+](=O)[O-])cc1)N1CCC(C(O)(c2ccc3c(c2)OCO3)c2ccc3c(c2)OCO3)CC1 [JZL184] (first compound 0.016 µM, partner dose 1 µM) | 71.4% | 24.6% | 154% | 80.3% | 77.8% | 86.7% | 18.2% | 92.7% |
| C=CCNC1=C2C[C@@H](C)C[C@H](OC)[C@H](O)[C@@H](C)/C=C(\C)[C@H](OC(N)=O)[C@@H](OC)/C=C\C=C(/C)C(=O)NC(=CC1=O)C2=O [Tanespimycin] + C/C(O)=C(\C#N)C(=O)Nc1cc(Br)ccc1Br [LFM-A13] (first compound 0.002 µM, partner dose 2 µM) | 60.5% | 30.6% | 54.8% | 120% | 100% | 90.3% | 69.5% | 79.8% |
| CC1(C)CCC(c2ccc(Cl)cc2)=C(CN2CCN(c3ccc(C(=O)NS(=O)(=O)c4ccc(N[C@H](CCN5CCOCC5)CSc5ccccc5)c(S(=O)(=O)C(F)(F)F)c4)cc3)CC2)C1 + C/C(O)=C(\C#N)C(=O)Nc1cc(Br)ccc1Br [LFM-A13] (first compound 0.4 µM, partner dose 2 µM) | 432% | 117% | 32.4% | 425% | 721% | 639% | 567% | 382% |
| N#CC[C@H](C1CCCC1)n1cc(-c2ncnc3[nH]ccc23)cn1 [ruxolitinib] + Cc1cc(SCc2sc(-c3ccc(C(F)(F)F)c(F)c3)nc2C)ccc1OCC(=O)O [GW0742] (first compound 1 µM, partner dose 2 µM) | 65.1% | 31.4% | 26.6% | 75.9% | 107% | 90.8% | 177% | 457% |
| CCCCCCCCc1ccc(CCC(N)(CO)CO)cc1 [fingolimod] + Cc1cc(SCc2sc(-c3ccc(C(F)(F)F)c(F)c3)nc2C)ccc1OCC(=O)O [GW0742] (first compound 2 µM, partner dose 2 µM) | 321% | 24.6% | 25.1% | 129% | 75.4% | 120% | 54.7% | 103% |
| C[C@]12O[C@H](C[C@]1(O)CO)n1c3ccccc3c3c4c(c5c6ccccc6n2c5c31)CNC4=O [Lestaurtinib] + COc1ccc2c(c1)CCC1C2CCC2(C)C(NCCCCCCN3C(=O)C=CC3=O)CCC12 [U73122] (first compound 0.004 µM, partner dose 0.4 µM) | 208% | 50.9% | 94.8% | 89% | 98.4% | 97.5% | 164% | 109% |

Single values from the results shown:
For cleaved PARP positive nuclei fraction [2], Cn1cc(C2=C(c3cn(C4CCN(Cc5ccccn5)CC4)c4ccccc34)C(=O)NC2=O)c2ccccc21 [Enzastaurin] + COC(=O)c1sccc1S(=O)(=O)Nc1ccc(Nc2ccccc2)cc1OC [GSK0660] (first compound 0.8 µM, partner dose 1 µM) is listed with 11.3%
For cleaved PARP positive nuclei fraction [3], Cn1cc(C2=C(c3cn(C4CCN(Cc5ccccn5)CC4)c4ccccc34)C(=O)NC2=O)c2ccccc21 [Enzastaurin] + COc1ccc(COc2ccc(Cc3cnc(N)nc3N)cc2OC)cc1 [GW2580] (first compound 0.8 µM, partner dose 1 µM) is listed with 46.7%
